Here are results for two substances from paper PMC4074815, “An Impermeant Ganetespib Analog Inhibits Extracellular Hsp90-Mediated Cancer Cell Migration that Involves Lysyl Oxidase 2-like Protein” (Cancers, 2014).

By UniProt entry, the sequences of proteins in these tests, tags left out. Residues count along the entry.
UniProt Q9Y4K0, residues 26-774: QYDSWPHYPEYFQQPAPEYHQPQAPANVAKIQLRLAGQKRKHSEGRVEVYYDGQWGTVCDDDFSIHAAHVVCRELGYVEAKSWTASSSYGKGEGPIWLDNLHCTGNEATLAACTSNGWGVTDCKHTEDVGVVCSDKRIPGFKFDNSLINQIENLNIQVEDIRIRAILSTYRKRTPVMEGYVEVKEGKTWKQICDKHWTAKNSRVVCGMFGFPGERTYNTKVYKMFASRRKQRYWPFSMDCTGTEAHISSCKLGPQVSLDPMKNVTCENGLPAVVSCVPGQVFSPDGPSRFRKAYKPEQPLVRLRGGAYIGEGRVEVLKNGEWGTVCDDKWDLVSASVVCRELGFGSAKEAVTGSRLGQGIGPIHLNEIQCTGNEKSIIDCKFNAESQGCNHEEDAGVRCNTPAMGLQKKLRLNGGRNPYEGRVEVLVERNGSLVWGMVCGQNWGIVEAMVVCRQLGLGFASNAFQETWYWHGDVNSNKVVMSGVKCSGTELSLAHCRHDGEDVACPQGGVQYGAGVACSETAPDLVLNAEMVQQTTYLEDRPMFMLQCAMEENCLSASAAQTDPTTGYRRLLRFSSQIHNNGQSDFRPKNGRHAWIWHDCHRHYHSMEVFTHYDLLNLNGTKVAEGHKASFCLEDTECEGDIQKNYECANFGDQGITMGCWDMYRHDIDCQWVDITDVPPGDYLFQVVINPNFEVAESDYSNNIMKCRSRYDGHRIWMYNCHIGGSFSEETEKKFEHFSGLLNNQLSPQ

No constants are given. Whether binding was seen depends on the method and setting. Binding seen in cells or lysates may run through a third protein. Some entries that bind do so weakly or less than the wild type.

The target of assay [1] is Lysyl Oxidase-like 2 precursor (human (endogenous in MDA-MB231)) (UniProt Q9Y4K0). Kind of assay: co-IP; immunoprecipitation with anti-Hsp90 alpha or anti-LOXL2 (2.5 μg) from concentrated conditioned media of MDA-MB231 cells; washed with RIPA B buffer; Western blot.
Assay [2] concerns the target Heat Shock Protein 90 kDa alpha (cytosolic), class A member 1 isoform 2 (human (endogenous in MDA-MB231)) (UniProt P07900). The description is as above.

With “Heat Shock Protein 90 kDa alpha (cytosolic), class A member 1 isoform 2 (from UniProt P07900 1-732)”, the binding result in assay [1] was “binds”.

As for “Lysyl Oxidase-like 2 precursor (from UniProt Q9Y4K0 26-774)”, in assay [2], the binding result is “binds”.
